## Screening data, single-dose tests

Amino acid sequences for entries named in this document (tags omitted).
UniProt P9WPC5, whole entry: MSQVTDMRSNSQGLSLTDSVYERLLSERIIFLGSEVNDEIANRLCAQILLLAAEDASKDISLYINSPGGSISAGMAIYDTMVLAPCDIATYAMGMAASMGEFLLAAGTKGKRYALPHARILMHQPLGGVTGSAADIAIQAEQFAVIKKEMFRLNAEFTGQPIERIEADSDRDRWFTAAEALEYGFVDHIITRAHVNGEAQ
UniProt P9WPC3, whole entry partner: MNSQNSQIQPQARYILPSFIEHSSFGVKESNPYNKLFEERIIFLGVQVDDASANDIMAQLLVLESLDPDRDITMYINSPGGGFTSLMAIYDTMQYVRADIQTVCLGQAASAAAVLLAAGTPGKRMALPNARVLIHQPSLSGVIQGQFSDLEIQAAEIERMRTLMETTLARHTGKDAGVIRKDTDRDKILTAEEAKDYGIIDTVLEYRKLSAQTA
UniProt I6X8D2, whole entry: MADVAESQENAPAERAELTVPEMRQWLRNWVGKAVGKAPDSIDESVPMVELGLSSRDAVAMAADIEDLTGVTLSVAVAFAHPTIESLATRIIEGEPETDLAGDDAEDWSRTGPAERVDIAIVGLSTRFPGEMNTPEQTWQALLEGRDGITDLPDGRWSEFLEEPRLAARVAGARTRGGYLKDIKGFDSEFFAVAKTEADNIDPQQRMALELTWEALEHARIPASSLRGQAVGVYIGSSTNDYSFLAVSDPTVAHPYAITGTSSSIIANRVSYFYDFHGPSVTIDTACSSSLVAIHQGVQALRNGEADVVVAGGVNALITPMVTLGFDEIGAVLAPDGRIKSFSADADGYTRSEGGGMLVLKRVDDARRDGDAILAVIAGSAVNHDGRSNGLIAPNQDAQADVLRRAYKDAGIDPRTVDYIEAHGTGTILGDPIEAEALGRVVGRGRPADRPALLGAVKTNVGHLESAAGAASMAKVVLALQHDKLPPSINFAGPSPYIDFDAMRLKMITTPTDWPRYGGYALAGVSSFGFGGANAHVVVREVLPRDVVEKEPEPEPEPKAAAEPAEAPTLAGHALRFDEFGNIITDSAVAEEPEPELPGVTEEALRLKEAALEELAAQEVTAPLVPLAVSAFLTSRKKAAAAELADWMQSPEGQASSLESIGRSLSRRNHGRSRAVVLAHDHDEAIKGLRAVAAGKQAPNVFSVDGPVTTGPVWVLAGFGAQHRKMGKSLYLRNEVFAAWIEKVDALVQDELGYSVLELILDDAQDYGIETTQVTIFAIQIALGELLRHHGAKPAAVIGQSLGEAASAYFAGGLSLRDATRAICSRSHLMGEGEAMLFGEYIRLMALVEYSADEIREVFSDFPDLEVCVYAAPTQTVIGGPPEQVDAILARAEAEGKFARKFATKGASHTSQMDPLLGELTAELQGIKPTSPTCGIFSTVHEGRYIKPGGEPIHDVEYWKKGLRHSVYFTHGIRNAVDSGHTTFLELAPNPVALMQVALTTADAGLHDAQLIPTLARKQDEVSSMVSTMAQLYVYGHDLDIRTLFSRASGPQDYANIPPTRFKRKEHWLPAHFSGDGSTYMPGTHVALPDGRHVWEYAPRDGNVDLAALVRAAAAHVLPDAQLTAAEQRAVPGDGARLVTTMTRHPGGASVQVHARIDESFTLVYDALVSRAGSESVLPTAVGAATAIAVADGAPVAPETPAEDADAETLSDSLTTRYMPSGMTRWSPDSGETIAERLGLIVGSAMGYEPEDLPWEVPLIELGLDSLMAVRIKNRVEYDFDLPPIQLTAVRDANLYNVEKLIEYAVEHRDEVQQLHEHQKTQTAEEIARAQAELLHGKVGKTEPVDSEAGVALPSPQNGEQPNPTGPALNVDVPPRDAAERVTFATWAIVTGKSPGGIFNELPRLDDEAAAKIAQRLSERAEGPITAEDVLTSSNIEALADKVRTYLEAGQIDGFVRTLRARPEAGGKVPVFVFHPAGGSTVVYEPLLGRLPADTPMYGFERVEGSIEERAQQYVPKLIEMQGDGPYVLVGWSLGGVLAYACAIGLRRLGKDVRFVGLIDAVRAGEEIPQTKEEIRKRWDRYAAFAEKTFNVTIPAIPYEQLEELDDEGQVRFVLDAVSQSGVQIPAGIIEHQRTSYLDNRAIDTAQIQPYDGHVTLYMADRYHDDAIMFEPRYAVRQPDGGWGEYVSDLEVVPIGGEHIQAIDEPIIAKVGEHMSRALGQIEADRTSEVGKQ

From ChEMBL document CHEMBL3988442, “University of Dundee, Small-Polar-MMV Screening Library” (2021).

Leishmania in macrophages: 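Cell assay of Leishmania donovani living inside macrophages; the read-out is not stated. Tested at 30 µM. Direction is inferred from retests: higher values go with stronger inhibition. About 69,000 compounds were tested under these conditions; 1.5% (about 1,000) showed 50% or more at least once.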
Toxoplasma: 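Assay of Toxoplasma gondii numbers, read through their beta-galactosidase reporter with a colour substrate. Compounds at 10 µM. The record gives no direction; the compounds picked for IC50 retests had high values, so higher reads as fewer parasites. Of about 67,000 compounds tested this way, about 260 (0.38%) reached 50% or more in at least one test.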
ClpP1P2: 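Protease assay of ClpP1P2, read by the AMC dye that it sets free. Target: ClpP1P2, Mycobacterium tuberculosis (UniProt P9WPC5 and UniProt P9WPC3). Compounds at 50 µM. Higher reads as stronger inhibition, judged from the few compounds that gave an IC50. Most other retested compounds had strongly negative values. Of about 69,000 compounds tested this way, about 10 (0.015%) reached 50% or more in at least one test.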
T. brucei: 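Whole-parasite assay of Trypanosoma brucei over 72 hours; the read-out is not stated. Concentration: 30 µM. Higher reads as stronger inhibition (inferred: compounds with an IC50 in retests scored well above the rest). Values scatter widely below zero; nearly all retest evidence comes from the higher of the two concentrations used. Size under these conditions: about 64,000 compounds, about 940 of them at 50% or above in at least one test.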
Pks13 thioesterase: 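Enzyme assay of the thioesterase domain of polyketide synthase 13; the read-out is not stated. Target: Polyketide synthase Pks13, Mycobacterium tuberculosis (UniProt I6X8D2). Tested at 30 µM. The record gives no direction; the compounds picked for IC50 retests had high values, so higher reads as stronger inhibition. About 67,000 compounds were tested under these conditions; 0.46% (about 300) showed 50% or more at least once.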

Each number is a percent effect as filed.
The record does not define 0% and 100%; most values in the screen are far below 50% and negative numbers occur (in some assays of this library far below -100).
Compounds were drawn at random from those tested, without regard to their results.
Two or more numbers in one place are separate tests of the same structure; such repeats can differ widely.

{"compound": "Cn1c(C(=O)Nc2nc[nH]n2)cc2ccccc21", "Leishmania in macrophages": "-5.49 & -8.105", "Toxoplasma": 2.644, "ClpP1P2": -6.284, "T. brucei": -22.56, "Pks13 thioesterase": 3.064}
{"compound": "Cn1cc(C2CCCN2c2ncnc3[nH]ccc23)cn1", "stereo": "stereo unspecified", "Leishmania in macrophages": -42.63, "Toxoplasma": -66.41, "ClpP1P2": 10.54, "T. brucei": -50.17, "Pks13 thioesterase": -35.23}
{"compound": "Cc1ncccc1OCC(=O)N1CCN[C@H]2CS(=O)(=O)C[C@H]21", "ClpP1P2": -3.599, "Pks13 thioesterase": -8.931}
{"compound": "CC1(CCNC(=O)NCc2ccsc2)OCCO1", "Leishmania in macrophages": -7.253, "Toxoplasma": -7.875, "ClpP1P2": -5.969, "T. brucei": -54.36, "Pks13 thioesterase": -7.008}
{"compound": "COc1ccc(CN(C)C(=O)CCC(=O)c2cccs2)c(OC)c1OC", "Leishmania in macrophages": 29.48, "Toxoplasma": 2.416, "ClpP1P2": -0.8631, "T. brucei": -17.7}
{"compound": "COc1ccc(N2CCCN(C(=O)Cc3csc(C)n3)CC2)cc1", "Leishmania in macrophages": -4.943, "Toxoplasma": 1.459, "ClpP1P2": -16.54, "T. brucei": 5.782, "Pks13 thioesterase": -2.016}
{"compound": "COC(=O)C(C)(C)NC(=O)C1CC(=O)N(CC(C)C)C1", "stereo": "stereo unspecified", "Leishmania in macrophages": 28.85, "Toxoplasma": 0.09091, "ClpP1P2": 12.84, "T. brucei": -52.97, "Pks13 thioesterase": 14.74}
{"compound": "Cc1ccc(CNC(=O)c2cc(NC(=O)C3CC3)n(C)n2)o1", "Leishmania in macrophages": -58.46, "Toxoplasma": 2.088, "ClpP1P2": -8.448, "T. brucei": -22.95, "Pks13 thioesterase": -7.805}
{"compound": "COc1ccc(-c2nc(CN(C)Cc3nncn3C)c(C)o2)c(C)c1C", "Leishmania in macrophages": -9.727, "Toxoplasma": -28.08, "ClpP1P2": -10.3, "T. brucei": -9.095, "Pks13 thioesterase": -0.7599}
{"compound": "Cc1cc(C)c2nc(C)cc(C(=O)NCc3csc(N(C)C)n3)c2c1", "Leishmania in macrophages": 4.024, "Toxoplasma": -2.824, "ClpP1P2": 1.591, "T. brucei": -41.96, "Pks13 thioesterase": -0.663}
{"compound": "COc1ccc(C2CC(=O)Nc3nc(N4CCOCC4)sc32)c(OC)c1", "stereo": "stereo unspecified", "Leishmania in macrophages": 2.357, "Toxoplasma": -6.445, "ClpP1P2": -127.2, "T. brucei": -4.664, "Pks13 thioesterase": 34.14}
{"compound": "C[C@@H]1CN(Cc2nc(Cc3ccccc3F)no2)C[C@H](C)O1", "Leishmania in macrophages": 14.95, "Toxoplasma": 0.5902, "ClpP1P2": -9.511, "T. brucei": -92.25, "Pks13 thioesterase": -11.52}
{"compound": "Cc1csc(C2CCCCN2C(=O)CCn2cncn2)n1", "stereo": "stereo unspecified", "Leishmania in macrophages": -2.041, "Toxoplasma": -5.516, "ClpP1P2": 4.194, "T. brucei": -17.97, "Pks13 thioesterase": -7.745}
{"compound": "COCC(=O)N1C[C@H]2CNC[C@@]2(C(=O)NCc2cccc3[nH]ccc23)C1", "ClpP1P2": -4.603, "Pks13 thioesterase": -18.73}
{"compound": "[H][C@]12CC[C@]([H])(CN(C(=O)Cc3c(C)nc(C)[nH]c3=O)C1)N(CC=C(C)C)C2", "Leishmania in macrophages": -10.61, "Toxoplasma": 6.319, "T. brucei": -36.09}
{"compound": "[H][C@]12CC[C@]([H])(CN(Cc3ccccn3)C1)N(C(=O)c1cc(C)nc(N)n1)C2", "Leishmania in macrophages": -7.828, "Toxoplasma": -4.08, "T. brucei": -13.14}
{"compound": "CCc1nc(NC2CCCN(C(=O)C3CC3)C2)c2cnn(C)c2n1", "stereo": "stereo unspecified", "Leishmania in macrophages": -1.339, "ClpP1P2": -7.389, "T. brucei": -47.49, "Pks13 thioesterase": -2.622}
{"compound": "O=C(CN1C(=O)CCNC1=O)N1CCOC(c2ccc(Cl)c(Cl)c2)C1", "stereo": "stereo unspecified", "Leishmania in macrophages": 30.31, "Toxoplasma": -5.693, "ClpP1P2": 6.065, "T. brucei": -15.73, "Pks13 thioesterase": -22.39}
{"compound": "CC(Cn1ccnc1)NC1CCN(Cc2cccc(O)c2)CC1", "stereo": "stereo unspecified", "Leishmania in macrophages": 15.1, "Toxoplasma": 11.09, "ClpP1P2": 1.873, "T. brucei": 6.492, "Pks13 thioesterase": -49.2}
{"compound": "O=C(c1coc(CN2CCN(c3ccccc3F)CC2)n1)N1CCCC1", "Leishmania in macrophages": 14.6, "ClpP1P2": -6.534, "T. brucei": -21.05, "Pks13 thioesterase": -2.345}
{"compound": "O=C(c1ccccc1)N1C[C@H]2CCC[C@@]2(COCc2ccncc2)C1", "ClpP1P2": 0.3487, "Pks13 thioesterase": -30.25}
{"compound": "CCc1nc2n(n1)CCCC2NC(=O)Nc1cc(OC)ccc1C", "stereo": "stereo unspecified", "Leishmania in macrophages": 6.976, "Toxoplasma": -3.721, "ClpP1P2": -1.805, "T. brucei": -16.46, "Pks13 thioesterase": -13.8}

Repeated from the top, 2 entries:

| Compound | Leishmania in macrophages | Toxoplasma | ClpP1P2 | T. brucei | Pks13 thioesterase |
|---|---|---|---|---|---|
| `Cn1c(C(=O)Nc2nc[nH]n2)cc2ccccc21` | -5.49 & -8.105 | 2.644 | -6.284 | -22.56 | 3.064 |
| `Cn1cc(C2CCCN2c2ncnc3[nH]ccc23)cn1` (stereo unspecified) | -42.63 | -66.41 | 10.54 | -50.17 | -35.23 |